Source: the supplement of paper PMC12823440, “Inhibitors supercharge kinase turnover through native proteolytic circuits” (Nature, 2025)
Some of the results follow. Hit calls seldom repeat between salt and free forms of one compound.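 Kinases were expressed as nanoluciferase fusions in K562 cells and luminescence was read every 4 h between 2 and 18 h as percent of control, DMSO set to 100% and a positive control to 0%. A time point counts as decreased when the signal drops significantly (2 sigma). The hit call is the authors' own, does not follow from the count of time points alone, and its rule is not shown.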

Chains of the proteins cited; added tags and fusions are not shown. Lines headed by an entry give the natural chain unless they say otherwise; changes in a name come on top.
UniProt Q05397, whole entry, looked up: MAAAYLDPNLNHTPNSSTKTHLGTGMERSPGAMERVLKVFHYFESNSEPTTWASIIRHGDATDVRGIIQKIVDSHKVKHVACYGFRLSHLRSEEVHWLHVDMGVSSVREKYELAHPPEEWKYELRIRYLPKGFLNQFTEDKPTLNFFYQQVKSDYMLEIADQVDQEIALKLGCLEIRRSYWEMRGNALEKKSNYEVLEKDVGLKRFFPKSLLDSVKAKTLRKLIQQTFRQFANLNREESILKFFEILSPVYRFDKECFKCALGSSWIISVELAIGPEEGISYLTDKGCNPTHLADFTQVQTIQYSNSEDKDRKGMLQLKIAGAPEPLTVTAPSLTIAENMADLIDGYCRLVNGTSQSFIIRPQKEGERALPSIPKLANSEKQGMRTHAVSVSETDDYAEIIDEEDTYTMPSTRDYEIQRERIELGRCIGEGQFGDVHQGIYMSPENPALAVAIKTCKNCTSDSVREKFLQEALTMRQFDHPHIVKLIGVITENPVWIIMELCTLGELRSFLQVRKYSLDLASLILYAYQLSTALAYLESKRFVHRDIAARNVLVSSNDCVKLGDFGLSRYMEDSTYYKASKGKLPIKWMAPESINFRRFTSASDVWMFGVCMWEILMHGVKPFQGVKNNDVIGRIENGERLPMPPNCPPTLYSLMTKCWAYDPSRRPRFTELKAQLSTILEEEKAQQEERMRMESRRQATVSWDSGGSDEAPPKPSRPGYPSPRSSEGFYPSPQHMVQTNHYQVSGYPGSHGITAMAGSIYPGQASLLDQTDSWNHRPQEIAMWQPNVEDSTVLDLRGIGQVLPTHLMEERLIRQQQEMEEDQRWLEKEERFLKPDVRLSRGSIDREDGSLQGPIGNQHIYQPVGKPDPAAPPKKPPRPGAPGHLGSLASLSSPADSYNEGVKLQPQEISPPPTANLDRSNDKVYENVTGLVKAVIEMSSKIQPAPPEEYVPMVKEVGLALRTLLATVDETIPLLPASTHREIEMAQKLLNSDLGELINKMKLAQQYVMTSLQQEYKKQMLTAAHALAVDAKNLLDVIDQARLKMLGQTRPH
UniProt P53671: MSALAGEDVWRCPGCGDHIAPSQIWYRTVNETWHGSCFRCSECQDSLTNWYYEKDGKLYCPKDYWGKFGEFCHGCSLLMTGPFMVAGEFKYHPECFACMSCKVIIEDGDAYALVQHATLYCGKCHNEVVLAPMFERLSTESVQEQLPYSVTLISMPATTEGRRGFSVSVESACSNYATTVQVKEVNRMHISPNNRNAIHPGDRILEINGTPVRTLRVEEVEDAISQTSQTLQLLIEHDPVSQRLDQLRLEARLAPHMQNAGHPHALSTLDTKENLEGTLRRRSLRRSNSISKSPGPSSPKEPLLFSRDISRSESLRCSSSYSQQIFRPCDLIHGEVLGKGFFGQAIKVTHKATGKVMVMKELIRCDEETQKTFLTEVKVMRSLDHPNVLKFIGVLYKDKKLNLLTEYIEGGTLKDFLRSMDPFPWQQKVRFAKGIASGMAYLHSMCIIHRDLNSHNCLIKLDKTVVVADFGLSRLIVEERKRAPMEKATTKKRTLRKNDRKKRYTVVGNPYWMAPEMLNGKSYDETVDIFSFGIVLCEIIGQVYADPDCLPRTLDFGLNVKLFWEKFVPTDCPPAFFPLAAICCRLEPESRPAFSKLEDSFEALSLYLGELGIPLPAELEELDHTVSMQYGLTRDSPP
UniProt Q16288, whole entry, looked up: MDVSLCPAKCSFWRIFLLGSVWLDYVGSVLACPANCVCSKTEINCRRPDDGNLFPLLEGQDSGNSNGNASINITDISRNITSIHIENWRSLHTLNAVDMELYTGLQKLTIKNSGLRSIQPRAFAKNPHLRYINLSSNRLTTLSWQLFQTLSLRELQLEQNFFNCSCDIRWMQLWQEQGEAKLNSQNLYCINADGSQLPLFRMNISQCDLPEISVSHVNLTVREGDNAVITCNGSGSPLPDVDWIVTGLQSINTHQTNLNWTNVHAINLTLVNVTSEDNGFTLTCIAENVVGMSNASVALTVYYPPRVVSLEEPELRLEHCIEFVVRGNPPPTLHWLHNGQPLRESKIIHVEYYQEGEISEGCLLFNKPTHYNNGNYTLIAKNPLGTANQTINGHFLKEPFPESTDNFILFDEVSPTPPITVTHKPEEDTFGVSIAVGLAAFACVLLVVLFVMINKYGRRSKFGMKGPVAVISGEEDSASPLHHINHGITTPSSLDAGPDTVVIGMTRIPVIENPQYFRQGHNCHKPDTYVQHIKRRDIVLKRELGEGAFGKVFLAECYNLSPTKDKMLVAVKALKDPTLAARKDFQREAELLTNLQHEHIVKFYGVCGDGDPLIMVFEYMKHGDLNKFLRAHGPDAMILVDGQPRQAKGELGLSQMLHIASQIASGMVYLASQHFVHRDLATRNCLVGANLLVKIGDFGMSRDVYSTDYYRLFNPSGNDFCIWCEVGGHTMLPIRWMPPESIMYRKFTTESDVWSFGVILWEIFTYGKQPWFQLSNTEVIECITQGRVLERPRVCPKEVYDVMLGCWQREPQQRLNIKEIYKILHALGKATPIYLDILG
UniProt P28482, whole entry: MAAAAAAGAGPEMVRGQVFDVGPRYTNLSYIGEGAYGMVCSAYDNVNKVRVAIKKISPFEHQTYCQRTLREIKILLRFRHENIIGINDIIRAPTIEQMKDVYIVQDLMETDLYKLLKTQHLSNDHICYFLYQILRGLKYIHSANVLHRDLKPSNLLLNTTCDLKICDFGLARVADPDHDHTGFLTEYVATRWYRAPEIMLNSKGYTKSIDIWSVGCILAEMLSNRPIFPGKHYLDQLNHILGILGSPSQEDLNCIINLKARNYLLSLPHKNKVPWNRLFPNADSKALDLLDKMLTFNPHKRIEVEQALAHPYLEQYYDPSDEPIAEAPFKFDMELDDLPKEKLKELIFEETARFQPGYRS
UniProt Q96GD4, whole entry: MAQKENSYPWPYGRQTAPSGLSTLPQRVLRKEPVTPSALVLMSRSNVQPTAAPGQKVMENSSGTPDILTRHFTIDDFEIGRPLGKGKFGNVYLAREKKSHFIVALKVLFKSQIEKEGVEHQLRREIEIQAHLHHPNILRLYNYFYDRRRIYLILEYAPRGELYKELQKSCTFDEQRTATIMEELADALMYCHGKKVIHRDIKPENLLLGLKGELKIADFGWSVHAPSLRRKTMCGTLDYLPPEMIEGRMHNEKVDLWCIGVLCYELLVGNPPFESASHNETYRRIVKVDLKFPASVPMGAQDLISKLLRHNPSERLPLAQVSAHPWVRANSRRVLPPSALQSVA
UniProt P48730: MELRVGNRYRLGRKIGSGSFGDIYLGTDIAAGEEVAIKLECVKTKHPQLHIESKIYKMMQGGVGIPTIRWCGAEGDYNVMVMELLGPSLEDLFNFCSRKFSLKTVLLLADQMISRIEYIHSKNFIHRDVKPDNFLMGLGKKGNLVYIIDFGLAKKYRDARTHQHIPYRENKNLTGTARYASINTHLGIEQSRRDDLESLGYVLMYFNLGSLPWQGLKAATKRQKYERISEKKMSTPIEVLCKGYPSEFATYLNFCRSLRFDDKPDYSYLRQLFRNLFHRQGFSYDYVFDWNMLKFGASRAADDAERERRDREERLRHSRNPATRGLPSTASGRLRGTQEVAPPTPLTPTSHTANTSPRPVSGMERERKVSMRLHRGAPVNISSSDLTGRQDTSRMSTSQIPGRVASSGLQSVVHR
UniProt P11362, whole entry, looked up: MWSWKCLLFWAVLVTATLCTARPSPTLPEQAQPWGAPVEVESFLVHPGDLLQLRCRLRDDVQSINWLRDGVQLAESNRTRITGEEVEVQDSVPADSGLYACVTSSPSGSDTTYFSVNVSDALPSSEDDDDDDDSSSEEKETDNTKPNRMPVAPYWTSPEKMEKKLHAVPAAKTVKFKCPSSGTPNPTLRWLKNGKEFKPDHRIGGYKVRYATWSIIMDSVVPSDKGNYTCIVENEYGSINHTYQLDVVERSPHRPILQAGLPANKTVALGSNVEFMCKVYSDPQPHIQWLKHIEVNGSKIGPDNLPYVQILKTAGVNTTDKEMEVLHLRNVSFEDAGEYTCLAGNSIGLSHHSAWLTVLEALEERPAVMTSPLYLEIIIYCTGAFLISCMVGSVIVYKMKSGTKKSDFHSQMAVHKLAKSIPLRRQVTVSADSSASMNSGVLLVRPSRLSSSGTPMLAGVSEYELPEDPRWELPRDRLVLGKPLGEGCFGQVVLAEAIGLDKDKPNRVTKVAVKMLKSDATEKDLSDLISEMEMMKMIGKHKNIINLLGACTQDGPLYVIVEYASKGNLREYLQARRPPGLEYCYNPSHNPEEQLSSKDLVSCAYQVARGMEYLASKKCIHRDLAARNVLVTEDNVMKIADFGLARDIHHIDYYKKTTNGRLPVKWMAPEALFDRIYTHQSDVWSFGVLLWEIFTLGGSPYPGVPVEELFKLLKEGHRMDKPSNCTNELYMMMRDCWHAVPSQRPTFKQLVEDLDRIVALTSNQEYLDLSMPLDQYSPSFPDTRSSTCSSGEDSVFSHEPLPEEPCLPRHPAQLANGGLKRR
UniProt Q15208: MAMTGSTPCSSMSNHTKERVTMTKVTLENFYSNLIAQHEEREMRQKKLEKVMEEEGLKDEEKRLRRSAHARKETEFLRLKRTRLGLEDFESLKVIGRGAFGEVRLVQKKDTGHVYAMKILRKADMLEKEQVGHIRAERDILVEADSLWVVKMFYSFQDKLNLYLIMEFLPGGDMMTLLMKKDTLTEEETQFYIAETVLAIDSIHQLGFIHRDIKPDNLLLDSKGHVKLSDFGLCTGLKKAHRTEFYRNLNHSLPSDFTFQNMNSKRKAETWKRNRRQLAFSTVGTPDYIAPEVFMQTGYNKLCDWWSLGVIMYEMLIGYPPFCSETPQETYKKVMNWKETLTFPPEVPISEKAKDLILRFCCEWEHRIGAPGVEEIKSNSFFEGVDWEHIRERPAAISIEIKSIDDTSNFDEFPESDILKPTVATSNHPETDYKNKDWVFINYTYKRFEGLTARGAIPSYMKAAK
UniProt Q00534, whole entry: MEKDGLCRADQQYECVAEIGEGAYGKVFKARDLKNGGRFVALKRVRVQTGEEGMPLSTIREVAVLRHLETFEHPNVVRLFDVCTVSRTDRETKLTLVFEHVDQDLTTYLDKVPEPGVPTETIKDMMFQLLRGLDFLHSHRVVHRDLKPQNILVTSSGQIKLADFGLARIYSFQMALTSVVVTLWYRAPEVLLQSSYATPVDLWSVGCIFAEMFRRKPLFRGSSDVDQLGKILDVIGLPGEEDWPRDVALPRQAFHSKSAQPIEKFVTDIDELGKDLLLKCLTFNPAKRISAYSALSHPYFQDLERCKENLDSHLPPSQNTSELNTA
UniProt Q15131: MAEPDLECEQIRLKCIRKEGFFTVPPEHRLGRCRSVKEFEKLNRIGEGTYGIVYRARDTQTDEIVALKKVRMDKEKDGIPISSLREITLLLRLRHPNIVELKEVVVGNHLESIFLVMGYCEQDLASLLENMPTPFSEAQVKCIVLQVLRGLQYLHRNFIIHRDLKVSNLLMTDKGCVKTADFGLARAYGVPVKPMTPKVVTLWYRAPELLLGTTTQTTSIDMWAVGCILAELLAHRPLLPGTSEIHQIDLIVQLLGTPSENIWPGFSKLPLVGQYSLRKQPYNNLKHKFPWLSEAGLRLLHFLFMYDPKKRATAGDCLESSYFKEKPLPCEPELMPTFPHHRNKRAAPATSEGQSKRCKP
UniProt P53667: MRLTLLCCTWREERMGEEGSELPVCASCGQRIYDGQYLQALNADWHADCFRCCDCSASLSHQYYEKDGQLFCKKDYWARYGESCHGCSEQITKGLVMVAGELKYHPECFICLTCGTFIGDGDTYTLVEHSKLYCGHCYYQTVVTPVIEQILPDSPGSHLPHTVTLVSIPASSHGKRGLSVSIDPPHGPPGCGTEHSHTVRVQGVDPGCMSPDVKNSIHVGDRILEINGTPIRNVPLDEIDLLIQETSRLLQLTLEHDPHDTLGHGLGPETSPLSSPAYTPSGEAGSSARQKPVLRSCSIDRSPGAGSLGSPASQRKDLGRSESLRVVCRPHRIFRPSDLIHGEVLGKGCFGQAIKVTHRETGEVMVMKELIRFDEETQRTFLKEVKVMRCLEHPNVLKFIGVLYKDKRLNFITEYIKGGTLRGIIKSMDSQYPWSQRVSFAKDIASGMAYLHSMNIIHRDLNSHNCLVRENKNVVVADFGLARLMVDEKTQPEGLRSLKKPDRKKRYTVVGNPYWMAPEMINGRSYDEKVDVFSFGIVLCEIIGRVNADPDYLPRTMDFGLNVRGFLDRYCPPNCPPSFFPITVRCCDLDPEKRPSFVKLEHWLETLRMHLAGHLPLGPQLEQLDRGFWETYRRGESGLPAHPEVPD

These targets were tested with C=CC(=O)Nc1cc(Nc2nccc(-c3cn(C4CC4)c4ccccc34)n2)c(OC)cc1N(C)CCN(C)C [Almonertinib] (assay: number of time points (of 5) at which kinase-Nluc abundance scored as decreased, DMSO-normalised (count); higher = more persistent destabilization). Conditions: 2.5 µM; K562; 2-18 h.

| Target | number of time points |
| --- | --- |
| PTK2 (UniProt Q05397) | 0 |
| RAF1_S257L (clone: RAF1_mut) (UniProt P04049) | 0 |
| CSNK1A1 (UniProt P48729) | 0 |
| LIMK2 (UniProt P53671) | 0 |
| PIK4CB (UniProt Q9UBF8) | 0 |
| HER2 (UniProt P04626) | 4 |
| PTK2B (UniProt Q14289) | 0 |
| AKT1 (UniProt P31749) | 0 |
| NTRK3 (UniProt Q16288) | 0 |
| MAPK1 (UniProt P28482) | 0 |
| RIPK2 (UniProt O43353) | 0 |
| AURKB (UniProt Q96GD4) | 0 |
| ERN1 (UniProt O75460) | 0 |
| CSNK1D (UniProt P48730) | 0 |
| ROR2 (UniProt Q01974) | 0 |
| FGFR1 (UniProt P11362) | 0 |

| Target | number of time points |
| --- | --- |
| STK38 (UniProt Q15208) | 0 |
| CDK6 (UniProt Q00534) | 0 |
| SYK (UniProt P43405) | 0 |
| PDGFRB (UniProt P09619) | 0 |
| MAP2K1 (UniProt Q02750) | 0 |
| TYK2 (UniProt P29597) | 0 |
| RIOK1 (UniProt Q9BRS2) | 0 |
| SPHK1 (UniProt Q9NYA1) | 0 |
| MAPK4 (UniProt P31152) | 0 |
| CDK10 (UniProt Q15131) | 0 |
| MAP2K2 (UniProt P36507) | 0 |
| LIMK1 (UniProt P53667) | 0 |
| PDPK1 (UniProt O15530) | 0 |
| PAK4 (UniProt O96013) | 0 |
| BMX (UniProt P51813) | 0 |

The targets below were run with C=CC(=O)Nc1cc2c(Nc3ccc(F)c(Cl)c3)ncnc2cc1C#CC(C)(C)N1CCN(C)CC1 [AV-412 (free base)] in the same assay as above. Conditions: 2.5 µM; K562; 2-18 h.

| Target | number of time points |
| --- | --- |
| PTK2 (UniProt Q05397) | 4 |
| RAF1_S257L (clone: RAF1_mut) (UniProt P04049) | 0 |
| CSNK1A1 (UniProt P48729) | 0 |
| LIMK2 (UniProt P53671) | 3 |
| PIK4CB (UniProt Q9UBF8) | 0 |
| HER2 (UniProt P04626) | 5 |
| PTK2B (UniProt Q14289) | 0 |
| AKT1 (UniProt P31749) | 0 |
| NTRK3 (UniProt Q16288) | 0 |
| MAPK1 (UniProt P28482) | 0 |
| RIPK2 (UniProt O43353) | 0 |
| AURKB (UniProt Q96GD4) | 3 |
| ERN1 (UniProt O75460) | 0 |
| CSNK1D (UniProt P48730) | 0 |
| ROR2 (UniProt Q01974) | 0 |
| FGFR1 (UniProt P11362) | 0 |

| Target | number of time points |
| --- | --- |
| STK38 (UniProt Q15208) | 0 |
| CDK6 (UniProt Q00534) | 0 |
| SYK (UniProt P43405) | 0 |
| PDGFRB (UniProt P09619) | 0 |
| MAP2K1 (UniProt Q02750) | 0 |
| TYK2 (UniProt P29597) | 0 |
| RIOK1 (UniProt Q9BRS2) | 0 |
| SPHK1 (UniProt Q9NYA1) | 0 |
| MAPK4 (UniProt P31152) | 0 |
| CDK10 (UniProt Q15131) | 0 |
| MAP2K2 (UniProt P36507) | 0 |
| LIMK1 (UniProt P53667) | 0 |
| PDPK1 (UniProt O15530) | 0 |
| PAK4 (UniProt O96013) | 0 |
| BMX (UniProt P51813) | 4 |
